Experimental data: the supplement of paper PMC12067093, “Discovery and optimisation of a covalent ligand for TRIM25 and its application to targeted protein ubiquitination” (Chemical Science, 2025)
The list shows a part of the results.

The chains behind the UniProt entries cited, without tags or fusion partners. Where a name states a change or a piece, a line headed by the entry shows the natural chain unless it says otherwise.
UniProt Q9BQG0: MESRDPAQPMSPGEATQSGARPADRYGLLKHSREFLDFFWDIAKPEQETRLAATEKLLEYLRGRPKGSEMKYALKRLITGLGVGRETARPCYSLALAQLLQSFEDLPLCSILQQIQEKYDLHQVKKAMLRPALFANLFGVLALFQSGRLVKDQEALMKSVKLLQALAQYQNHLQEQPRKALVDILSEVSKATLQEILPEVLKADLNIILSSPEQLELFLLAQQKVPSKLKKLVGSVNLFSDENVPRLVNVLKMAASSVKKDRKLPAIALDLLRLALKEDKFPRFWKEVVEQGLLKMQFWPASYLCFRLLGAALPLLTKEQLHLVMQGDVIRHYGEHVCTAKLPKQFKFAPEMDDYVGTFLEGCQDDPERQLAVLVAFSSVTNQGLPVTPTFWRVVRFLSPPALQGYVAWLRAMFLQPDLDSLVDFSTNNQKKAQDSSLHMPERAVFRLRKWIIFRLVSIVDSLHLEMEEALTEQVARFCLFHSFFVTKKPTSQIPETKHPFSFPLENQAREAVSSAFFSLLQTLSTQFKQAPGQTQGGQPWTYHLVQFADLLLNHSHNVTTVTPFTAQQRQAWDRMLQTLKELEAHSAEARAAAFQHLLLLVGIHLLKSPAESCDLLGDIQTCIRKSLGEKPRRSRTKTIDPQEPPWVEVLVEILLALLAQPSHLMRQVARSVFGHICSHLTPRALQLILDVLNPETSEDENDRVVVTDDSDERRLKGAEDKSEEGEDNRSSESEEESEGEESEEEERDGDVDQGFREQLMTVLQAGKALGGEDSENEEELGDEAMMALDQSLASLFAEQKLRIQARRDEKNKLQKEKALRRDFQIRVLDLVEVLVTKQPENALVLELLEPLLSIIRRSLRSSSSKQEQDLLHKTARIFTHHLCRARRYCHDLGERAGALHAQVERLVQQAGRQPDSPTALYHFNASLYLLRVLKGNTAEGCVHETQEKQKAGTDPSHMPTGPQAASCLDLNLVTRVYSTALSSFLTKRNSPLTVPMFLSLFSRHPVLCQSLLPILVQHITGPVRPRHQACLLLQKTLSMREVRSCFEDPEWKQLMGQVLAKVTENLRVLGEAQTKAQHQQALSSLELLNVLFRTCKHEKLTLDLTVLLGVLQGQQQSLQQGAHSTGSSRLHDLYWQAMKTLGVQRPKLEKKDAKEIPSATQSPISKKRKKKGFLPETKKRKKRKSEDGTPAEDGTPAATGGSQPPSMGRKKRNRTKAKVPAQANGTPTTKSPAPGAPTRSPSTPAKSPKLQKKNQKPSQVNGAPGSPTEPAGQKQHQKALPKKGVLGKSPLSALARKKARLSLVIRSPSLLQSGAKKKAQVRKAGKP
UniProt P20585: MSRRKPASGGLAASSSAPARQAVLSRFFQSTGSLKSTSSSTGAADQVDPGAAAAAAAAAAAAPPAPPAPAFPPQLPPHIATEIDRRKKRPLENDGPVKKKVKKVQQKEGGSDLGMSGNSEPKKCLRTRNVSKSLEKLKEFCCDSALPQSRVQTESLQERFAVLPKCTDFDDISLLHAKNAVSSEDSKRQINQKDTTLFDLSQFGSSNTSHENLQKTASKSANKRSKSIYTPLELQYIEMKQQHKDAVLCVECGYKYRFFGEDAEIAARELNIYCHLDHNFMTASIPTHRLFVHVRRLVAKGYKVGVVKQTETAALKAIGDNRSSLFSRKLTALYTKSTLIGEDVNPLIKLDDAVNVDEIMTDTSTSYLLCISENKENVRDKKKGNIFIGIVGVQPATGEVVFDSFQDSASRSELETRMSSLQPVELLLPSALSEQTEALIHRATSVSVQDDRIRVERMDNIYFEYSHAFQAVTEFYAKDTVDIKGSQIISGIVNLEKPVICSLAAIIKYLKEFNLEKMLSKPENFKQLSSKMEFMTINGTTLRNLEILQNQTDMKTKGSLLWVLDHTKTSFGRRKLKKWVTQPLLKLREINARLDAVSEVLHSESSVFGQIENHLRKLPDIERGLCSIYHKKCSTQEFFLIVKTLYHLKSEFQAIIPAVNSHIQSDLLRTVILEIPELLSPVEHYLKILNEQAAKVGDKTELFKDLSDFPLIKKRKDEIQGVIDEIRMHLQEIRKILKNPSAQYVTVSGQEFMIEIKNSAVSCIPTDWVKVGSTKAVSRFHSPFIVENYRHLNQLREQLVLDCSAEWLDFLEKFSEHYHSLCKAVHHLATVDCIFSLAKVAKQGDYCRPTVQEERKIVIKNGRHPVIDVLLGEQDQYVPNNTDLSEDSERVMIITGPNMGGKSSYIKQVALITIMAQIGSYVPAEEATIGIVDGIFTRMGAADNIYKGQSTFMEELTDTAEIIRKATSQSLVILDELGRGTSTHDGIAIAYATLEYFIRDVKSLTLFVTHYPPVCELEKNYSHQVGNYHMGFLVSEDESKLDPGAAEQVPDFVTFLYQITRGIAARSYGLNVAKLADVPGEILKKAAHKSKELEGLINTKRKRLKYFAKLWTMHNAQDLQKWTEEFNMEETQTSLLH
UniProt P43246, whole entry, looked up: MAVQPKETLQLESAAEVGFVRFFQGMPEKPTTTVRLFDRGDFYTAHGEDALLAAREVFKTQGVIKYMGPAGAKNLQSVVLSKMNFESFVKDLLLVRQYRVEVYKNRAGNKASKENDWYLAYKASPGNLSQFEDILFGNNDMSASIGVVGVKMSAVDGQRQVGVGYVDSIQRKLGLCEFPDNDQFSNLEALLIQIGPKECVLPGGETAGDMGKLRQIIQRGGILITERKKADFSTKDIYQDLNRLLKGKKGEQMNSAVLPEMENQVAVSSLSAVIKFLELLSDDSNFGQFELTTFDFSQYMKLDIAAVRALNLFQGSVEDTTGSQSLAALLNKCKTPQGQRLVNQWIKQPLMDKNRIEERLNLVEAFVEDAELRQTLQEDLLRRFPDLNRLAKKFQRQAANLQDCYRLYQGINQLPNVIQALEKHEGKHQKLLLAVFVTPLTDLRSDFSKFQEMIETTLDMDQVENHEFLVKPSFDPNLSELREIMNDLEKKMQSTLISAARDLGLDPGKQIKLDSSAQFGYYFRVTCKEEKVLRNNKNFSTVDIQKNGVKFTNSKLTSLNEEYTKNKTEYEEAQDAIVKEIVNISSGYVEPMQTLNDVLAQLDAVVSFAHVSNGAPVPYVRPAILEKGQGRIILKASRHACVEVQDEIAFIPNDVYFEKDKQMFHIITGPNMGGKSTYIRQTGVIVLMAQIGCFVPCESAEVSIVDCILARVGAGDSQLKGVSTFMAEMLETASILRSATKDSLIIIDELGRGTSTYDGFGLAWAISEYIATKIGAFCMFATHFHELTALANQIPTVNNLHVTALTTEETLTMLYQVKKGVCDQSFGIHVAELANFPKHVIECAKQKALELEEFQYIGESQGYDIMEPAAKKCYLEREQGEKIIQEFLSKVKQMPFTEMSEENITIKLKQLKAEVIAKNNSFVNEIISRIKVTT
UniProt P52701: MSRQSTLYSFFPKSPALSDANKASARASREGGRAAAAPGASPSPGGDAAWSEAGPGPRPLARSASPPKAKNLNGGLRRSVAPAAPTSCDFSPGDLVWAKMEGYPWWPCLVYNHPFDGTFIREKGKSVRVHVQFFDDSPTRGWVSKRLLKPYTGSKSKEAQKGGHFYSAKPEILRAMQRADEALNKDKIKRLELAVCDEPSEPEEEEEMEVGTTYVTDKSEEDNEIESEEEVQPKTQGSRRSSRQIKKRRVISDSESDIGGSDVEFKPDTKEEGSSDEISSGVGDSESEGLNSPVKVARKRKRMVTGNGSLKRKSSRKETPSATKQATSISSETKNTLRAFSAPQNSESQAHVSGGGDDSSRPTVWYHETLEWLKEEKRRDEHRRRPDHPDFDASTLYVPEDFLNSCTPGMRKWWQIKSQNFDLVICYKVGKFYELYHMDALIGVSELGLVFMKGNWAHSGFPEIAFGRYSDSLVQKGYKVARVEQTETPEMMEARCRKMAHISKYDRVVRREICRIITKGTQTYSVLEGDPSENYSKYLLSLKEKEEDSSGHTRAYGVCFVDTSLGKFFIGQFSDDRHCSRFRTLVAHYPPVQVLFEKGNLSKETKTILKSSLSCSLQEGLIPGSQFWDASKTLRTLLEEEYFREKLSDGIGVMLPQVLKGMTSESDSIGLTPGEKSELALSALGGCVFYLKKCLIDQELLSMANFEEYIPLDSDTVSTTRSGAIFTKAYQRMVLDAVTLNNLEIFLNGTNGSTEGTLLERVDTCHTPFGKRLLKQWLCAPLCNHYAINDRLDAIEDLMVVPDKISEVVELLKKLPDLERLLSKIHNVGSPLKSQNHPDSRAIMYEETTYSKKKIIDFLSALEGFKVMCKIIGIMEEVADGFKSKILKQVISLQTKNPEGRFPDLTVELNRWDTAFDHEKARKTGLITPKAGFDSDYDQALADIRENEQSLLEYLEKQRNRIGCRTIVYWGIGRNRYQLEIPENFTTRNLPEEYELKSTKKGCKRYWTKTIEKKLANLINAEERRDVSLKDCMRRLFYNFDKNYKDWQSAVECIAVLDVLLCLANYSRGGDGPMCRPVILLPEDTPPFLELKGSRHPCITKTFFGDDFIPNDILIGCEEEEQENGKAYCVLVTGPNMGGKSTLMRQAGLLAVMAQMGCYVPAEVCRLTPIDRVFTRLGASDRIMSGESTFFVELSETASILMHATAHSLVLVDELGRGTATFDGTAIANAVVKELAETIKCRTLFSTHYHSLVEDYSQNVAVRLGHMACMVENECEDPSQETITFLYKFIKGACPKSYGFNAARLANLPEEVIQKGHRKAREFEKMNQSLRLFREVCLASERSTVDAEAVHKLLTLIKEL
UniProt Q9NXD2: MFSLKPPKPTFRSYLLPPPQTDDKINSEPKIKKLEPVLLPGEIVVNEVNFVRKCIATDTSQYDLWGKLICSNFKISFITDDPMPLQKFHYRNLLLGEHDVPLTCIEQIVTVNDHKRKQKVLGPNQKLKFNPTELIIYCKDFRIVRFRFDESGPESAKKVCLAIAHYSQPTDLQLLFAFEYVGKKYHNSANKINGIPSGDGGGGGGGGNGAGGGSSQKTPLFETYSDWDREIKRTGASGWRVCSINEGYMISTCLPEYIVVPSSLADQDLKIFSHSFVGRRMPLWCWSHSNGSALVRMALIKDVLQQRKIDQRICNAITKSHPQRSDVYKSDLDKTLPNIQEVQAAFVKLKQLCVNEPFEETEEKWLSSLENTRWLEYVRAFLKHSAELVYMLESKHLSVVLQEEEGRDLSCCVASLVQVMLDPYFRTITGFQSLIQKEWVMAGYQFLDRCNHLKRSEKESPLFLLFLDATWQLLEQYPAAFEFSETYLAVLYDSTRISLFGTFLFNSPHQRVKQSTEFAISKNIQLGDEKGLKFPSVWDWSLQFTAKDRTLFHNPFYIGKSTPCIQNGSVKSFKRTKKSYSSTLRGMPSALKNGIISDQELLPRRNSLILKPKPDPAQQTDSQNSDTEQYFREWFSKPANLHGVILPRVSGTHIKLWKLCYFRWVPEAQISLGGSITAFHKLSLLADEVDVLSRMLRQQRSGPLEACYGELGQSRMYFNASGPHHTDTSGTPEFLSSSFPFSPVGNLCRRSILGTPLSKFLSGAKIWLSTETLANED
UniProt P42285: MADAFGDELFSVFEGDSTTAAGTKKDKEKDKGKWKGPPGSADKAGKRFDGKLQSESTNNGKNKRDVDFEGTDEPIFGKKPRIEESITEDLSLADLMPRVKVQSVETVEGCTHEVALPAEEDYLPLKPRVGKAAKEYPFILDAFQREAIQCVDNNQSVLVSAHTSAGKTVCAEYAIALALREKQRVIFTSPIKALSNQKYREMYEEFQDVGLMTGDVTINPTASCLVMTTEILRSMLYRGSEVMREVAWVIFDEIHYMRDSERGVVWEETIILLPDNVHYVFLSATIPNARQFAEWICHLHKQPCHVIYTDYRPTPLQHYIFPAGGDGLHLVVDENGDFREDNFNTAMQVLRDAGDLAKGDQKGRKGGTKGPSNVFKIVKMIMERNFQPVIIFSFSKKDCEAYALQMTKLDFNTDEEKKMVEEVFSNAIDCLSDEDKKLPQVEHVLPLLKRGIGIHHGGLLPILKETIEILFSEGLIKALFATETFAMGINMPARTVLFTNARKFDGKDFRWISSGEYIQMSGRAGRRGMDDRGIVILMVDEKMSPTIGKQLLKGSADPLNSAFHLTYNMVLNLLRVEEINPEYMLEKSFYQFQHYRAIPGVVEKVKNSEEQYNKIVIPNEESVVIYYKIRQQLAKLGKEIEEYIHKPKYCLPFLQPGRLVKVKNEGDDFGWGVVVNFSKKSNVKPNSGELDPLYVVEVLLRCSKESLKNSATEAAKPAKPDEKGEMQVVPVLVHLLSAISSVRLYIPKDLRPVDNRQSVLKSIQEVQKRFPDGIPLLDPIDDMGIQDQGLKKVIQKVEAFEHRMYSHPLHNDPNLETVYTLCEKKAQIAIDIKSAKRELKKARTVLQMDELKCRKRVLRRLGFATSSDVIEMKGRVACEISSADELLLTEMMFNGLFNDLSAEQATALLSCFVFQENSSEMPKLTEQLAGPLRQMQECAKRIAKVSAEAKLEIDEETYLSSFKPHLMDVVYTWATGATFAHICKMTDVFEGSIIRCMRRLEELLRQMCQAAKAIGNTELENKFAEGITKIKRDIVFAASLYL

Compound: CC1Cc2ccccc2N1C(=O)C1CCCN(C1)C(=O)CCl (mixture of isomers) [TRIM25 ligand 11 (diastereomer mixture)]
Assay: probe-labelled cysteine peptide fold change vs DMSO (competition) (log2 fold change); higher = less target engagement (more negative = stronger competition)
Conditions: THP-1, incubation time: 4 h
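Further: competitive chemoproteomic profiling in live THP-1 cells with an iodoacetamide desthiobiotin (IA-DTB) probe, comparing probe-labelled peptide intensities in compound-treated cells against DMSO-treated controls.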

Target	probe-labelled cysteine peptide fold change (10 µM)	probe-labelled cysteine peptide fold change (50 µM)
MTMR6_Q9Y217_383_CGQLDGDPK (UniProt Q9Y217)	0.184	0.145
MYBBP1A_Q9BQG0_338_HYGEHVCTAK (UniProt Q9BQG0)	0.0577	0.121
MTA2_O94776_209_ALDCSSSIR (UniProt O94776)	-0.025	–
MYH9_P35579_1379_KMEDSVGCLETAEEVK (UniProt P35579)	0.0601	-0.00386
MYH9_P35579_1437_QSACNLEK (UniProt P35579)	-0.00871	-0.0988
MRPS18A_Q9NVS2_186_DNVCYSR (UniProt Q9NVS2)	0.0628	0.0306
MTM1_Q13496_53_EVIYICPFNGPIK (UniProt Q13496)	0.0653	-0.0347
MSH3_P20585_847_QGDYCRPTVQEER (UniProt P20585)	-0.027	-0.0305
MYADM_Q96S97_279_DVSCSR (UniProt Q96S97)	0.166	0.376
MTOR_P42345_1593_AYGAMVSCHMLSELEEVIQYK (UniProt P42345)	0.161	-0.237
MTRF1_O75570_335_LVHIPTGLVVECQQER (UniProt O75570)	0.297	-0.12
MTMR9_Q96QG7_285_LVEACNDQTHNMDR (UniProt Q96QG7)	0.103	0.195
MYBBP1A_Q9BQG0_884_IFTHHLCR (UniProt Q9BQG0)	0.0154	0.0898
MTA3_Q9BTC8_109_CSVALLNETESVLSYLDK (UniProt Q9BTC8)	0.851	–
MSH2_P43246_199_ECVLPGGETAGDMGK (UniProt P43246)	0.0606	-0.0735
MRPS9_P82933_330_HDVTCTVSGGGR (UniProt P82933)	0.0395	0.132
MYH9_P35579_569_DKADFCIIHYAGK (UniProt P35579)	-0.15	-0.15
MSH2_P43246_404_QAANLQDCYR (UniProt P43246)	-0.0257	0.0523
MTA1_Q13330_281_AISALVPQGGPVLCRDEMEEWSASEANLFEEALEK (UniProt Q13330)	-0.0842	-0.516
MTHFS_P49914_180_EQICLQVPVNENDMK (UniProt P49914)	-0.00999	–

Target	probe-labelled cysteine peptide fold change (10 µM)	probe-labelled cysteine peptide fold change (50 µM)
MTHFD1L_Q6UB35_291_LHEADIVVLGSPKPEEIPLTWIQPGTTVLNCSHDFLSGK (UniProt Q6UB35)	0.0247	0.0744
MTCH1_Q9NZJ7_222_CMVQFVGR (UniProt Q9NZJ7)	0.102	0.0563
MTPAP_Q9NVV4_324_FSHQASGFQCDLTTNNR (UniProt Q9NVV4)	0.592	0.896
MSH6_P52701_1337_EVCLASER (UniProt P52701)	-0.0287	0.098
MTMR10_Q9NXD2_707_SGPLEACYGELGQSR (UniProt Q9NXD2)	0.0162	0.141
MTA2_O94776_261_AMSTLVPQGGPVLCR (UniProt O94776)	0.144	-0.0822
MTA1_Q13330_68_HATLSVCYK (UniProt Q13330)	0.0469	-0.125
MSH3_P20585_274_ELNIYCHLDHNFMTASIPTHR (UniProt P20585)	-0.0413	0.119
MTREX_P42285_399_KDCEAYALQMTK (UniProt P42285)	-0.044	0.0596
MYD88_Q99836_233_ECDFQTK (UniProt Q99836)	-0.0607	0.0123
MTMR10_Q9NXD2_70_LICSNFK (UniProt Q9NXD2)	-0.00124	0.0561
MRPS12_O15235_64_GVVLCTFTR (UniProt O15235)	-0.149	0.0516
MTOR_P42345_2243_YAVIPLSTNSGLIGWVPHCDTLHALIR (UniProt P42345)	-0.16	-0.0117
MVB12B_Q9H7P6_161_DSTEAAICDIR (UniProt Q9H7P6)	-0.078	-0.0296
MSH2_P43246_822_GVCDQSFGIHVAELANFPK (UniProt P43246)	-0.0423	0.0132
MS4A6A_Q9H2W1_240_MTHDCGYEELLTS (UniProt Q9H2W1)	0.184	-0.206
MTHFD1L_Q6UB35_828_AGAFDAVPCYHWSVGGK (UniProt Q6UB35)	0.125	-0.12
MSL1_Q68DK7_125_QAGIGGEPAAAGAGCSPR (UniProt Q68DK7)	0.0866	-0.0946
MYBBP1A_Q9BQG0_1031_HQACLLLQK (UniProt Q9BQG0)	-0.012	0.0317
MTG1_Q9BT17_113_NVIFTNCVK (UniProt Q9BT17)	0.0998	0.163

A section from the list above, for reference:
Target	probe-labelled cysteine peptide fold change (10 µM)	probe-labelled cysteine peptide fold change (50 µM)
MTPAP_Q9NVV4_324_FSHQASGFQCDLTTNNR (UniProt Q9NVV4)	0.592	0.896
MSH6_P52701_1337_EVCLASER (UniProt P52701)	-0.0287	0.098
MTMR10_Q9NXD2_707_SGPLEACYGELGQSR (UniProt Q9NXD2)	0.0162	0.141
MTA2_O94776_261_AMSTLVPQGGPVLCR (UniProt O94776)	0.144	-0.0822
MTA1_Q13330_68_HATLSVCYK (UniProt Q13330)	0.0469	-0.125
MSH3_P20585_274_ELNIYCHLDHNFMTASIPTHR (UniProt P20585)	-0.0413	0.119
MTREX_P42285_399_KDCEAYALQMTK (UniProt P42285)	-0.044	0.0596
MYD88_Q99836_233_ECDFQTK (UniProt Q99836)	-0.0607	0.0123
